No constants are given. Whether binding was seen depends on the method and setting. Some entries that bind do so weakly or less than the wild type.
Target: T1, human FAP on cells (human, UniProt Q12884 1-760)
T1 construct: whole, on cells; The cell line is named under assay; also called HT1080 human FAP cells; HT1080-hFAP cells
Test: flow cytometry on HT1080-human FAP cells (FIG. 93)

By UniProt entry, the sequences of proteins in these tests, tags left out.
UniProt Q12884: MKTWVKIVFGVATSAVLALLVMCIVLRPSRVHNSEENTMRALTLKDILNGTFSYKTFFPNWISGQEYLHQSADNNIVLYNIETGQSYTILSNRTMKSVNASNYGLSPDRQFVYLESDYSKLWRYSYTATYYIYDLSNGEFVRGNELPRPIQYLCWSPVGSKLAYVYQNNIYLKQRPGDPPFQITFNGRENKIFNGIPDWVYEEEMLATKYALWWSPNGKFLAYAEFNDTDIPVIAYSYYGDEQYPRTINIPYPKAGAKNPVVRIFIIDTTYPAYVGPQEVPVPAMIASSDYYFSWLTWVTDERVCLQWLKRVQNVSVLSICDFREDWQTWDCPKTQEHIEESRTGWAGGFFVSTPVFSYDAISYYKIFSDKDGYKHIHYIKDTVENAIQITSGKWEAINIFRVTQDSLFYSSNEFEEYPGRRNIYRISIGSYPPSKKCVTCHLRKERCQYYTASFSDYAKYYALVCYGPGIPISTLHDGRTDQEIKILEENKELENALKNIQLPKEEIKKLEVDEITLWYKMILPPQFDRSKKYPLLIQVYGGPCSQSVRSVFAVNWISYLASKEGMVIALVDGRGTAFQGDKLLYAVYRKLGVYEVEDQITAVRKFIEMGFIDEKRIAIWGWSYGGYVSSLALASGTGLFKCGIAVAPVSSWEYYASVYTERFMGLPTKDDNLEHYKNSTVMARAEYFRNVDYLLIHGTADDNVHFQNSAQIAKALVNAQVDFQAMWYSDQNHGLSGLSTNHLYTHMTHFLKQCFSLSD

B1: 9A5 (protein)
chain: QVQLKESGPGLVAPSQSLSITCTVSGFSLTNYDINWIRQPPGKGLEWLGLIWTGGGTNYNSAFMSRLSISKDNSKSQVFLKMNSLQTDDTAIYYCVRGGPLVWYALDYWGQGTSVTVSSDIVMTQSHKFMSTSVGDRVSITCKASQDVSTAVAWYQQKPGQSPKLLIYSASYRYTGVPDRFTGSGSGTDFTFTISSVQAEDLAVYYCQQHYSNPRTFGGGTKLEIK
binding: binds
